These are yes or no findings as the source states them, for the method shown. Binding seen in cells or lysates may run through a third protein. Some results given as binding are weak or reduced against the parent protein; the word gives no strength.
Experiments:
[1] = target: MKK7 (full length MKK7 expressed from the pGST vector in HEK293T cells) (human) (UniProt O14733); experiment: GST pull-down from HEK293T lysate, Western blot
[2] = target: PP2Ac (Protein Phosphatase 2Ac) expressed from the pGST (pEBG) vector in HEK293T cells (human) (UniProt P67775); experiment: GST pull-down, Western blot (legend of FIG. 10A)
[3] = target: MKK7 (full length MKK7 expressed from the pGST vector in HEK293T cells) (human) (UniProt O14733); experiment: GST pull-down, Western blot (legend of FIG. 10B)
[4] = target: PP2Ac (Protein Phosphatase 2Ac) expressed from the pGST (pEBG) vector in HEK293T cells (human) (UniProt P67775); experiment: GST pull-down from transfected HEK293T lysate, Western blot
[5] = target: MKK7 (full length MKK7 expressed from the pGST vector in HEK293T cells) (human) (UniProt O14733); experiment: GST pull-down from HEK293T lysate after MKK7 over-expression
[6] = target: MKK7 (full length MKK7 expressed from the pGST vector in HEK293T cells) (human) (UniProt O14733); experiment: GST pull-down after MKK7 over-expression (legend of FIG. 11A)
[7] = target: MKK7 (full length MKK7 expressed from the pGST vector in HEK293T cells) (human) (UniProt O14733); experiment: GST pull-down from transfected HEK293T lysate, Western blot (FIG. 10B)
[8] = target: PP2Ac (Protein Phosphatase 2Ac) expressed from the pGST (pEBG) vector in HEK293T cells (human) (UniProt P67775); experiment: as above
[9] = target: PP2Ac (Protein Phosphatase 2Ac) expressed from the pGST (pEBG) vector in HEK293T cells (human) (UniProt P67775); experiment: GST pull-down from HEK293T lysate after PP2Ac over-expression, Western blot
[10] = target: MKK7 recombination protein from pET21-MKK7, made in E. coli BL21 (human) (UniProt O14733); experiment: in vitro GST pull-down of recombinant proteins (legend of FIG. 11C)
[11] = target: PP2Ac recombination protein from pET21-PP2Ac, made in E. coli BL21 (human) (UniProt P67775); experiment: as above
[12] = target: MKK7 recombination protein from pET21-MKK7, made in E. coli BL21 (human) (UniProt O14733); experiment: in vitro GST pull-down, recombinant proteins from E. coli at 1:1 ratio
[13] = target: PP2Ac recombination protein from pET21-PP2Ac, made in E. coli BL21 (human) (UniProt P67775); experiment: as above

By UniProt entry, the sequences of proteins in these tests, tags left out. Where a name states a change or a piece, a line headed by the entry shows the natural chain unless it says otherwise.
UniProt O14733: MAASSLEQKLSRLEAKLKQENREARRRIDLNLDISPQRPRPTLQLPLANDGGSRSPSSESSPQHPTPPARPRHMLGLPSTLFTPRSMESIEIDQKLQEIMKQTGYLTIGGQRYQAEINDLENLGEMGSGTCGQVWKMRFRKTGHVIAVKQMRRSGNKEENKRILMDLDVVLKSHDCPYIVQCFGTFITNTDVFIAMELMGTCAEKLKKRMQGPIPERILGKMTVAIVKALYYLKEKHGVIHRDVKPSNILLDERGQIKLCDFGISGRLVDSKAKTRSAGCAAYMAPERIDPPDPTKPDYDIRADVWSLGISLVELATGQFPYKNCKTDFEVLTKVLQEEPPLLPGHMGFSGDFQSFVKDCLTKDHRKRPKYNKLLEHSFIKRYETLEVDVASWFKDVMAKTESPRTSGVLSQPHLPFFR
UniProt P67775: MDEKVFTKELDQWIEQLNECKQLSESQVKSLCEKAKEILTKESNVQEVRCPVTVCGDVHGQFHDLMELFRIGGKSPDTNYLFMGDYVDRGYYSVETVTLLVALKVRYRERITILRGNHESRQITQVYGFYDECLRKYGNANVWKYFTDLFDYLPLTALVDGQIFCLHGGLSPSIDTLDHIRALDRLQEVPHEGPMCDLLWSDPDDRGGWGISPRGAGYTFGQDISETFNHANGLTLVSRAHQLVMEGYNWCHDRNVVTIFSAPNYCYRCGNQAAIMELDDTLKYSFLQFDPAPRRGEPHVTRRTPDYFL

Row | binding [1] | binding [2] | binding [3] | binding [4] | binding [5] | binding [6] | binding [7] | binding [8] | binding [9] | binding [10] | binding [11] | binding [12] | binding [13] | Binder
1 | binds | binds | binds | binds | binds | binds | binds | binds | binds |  |  |  |  | TIP41 (full length TIP41 protein expressed from the pHA vector in HEK293T cells) (protein, not shown: small tags and cut ends) MMIHGFQSSHRDFCFGPWKLTASKTHIMKSADVEKLADELHMPSLPEMMFGDNVLRIQHGSGFGIEFNATDALRCVNNYQGMLKVACAEEWQESRTEGEHSKEVIKPYDWTYTTDYKGTLLGESLKLKVVPTTDHIDTEKLKAREQIKFFEEVLLFEDELHDHGVSSLSVKIRVMPSSFFLLLRFFLRIDGVLIRMNDTRLYHEADKTYMLREYTSRESKISSLMHVPPSLFTEPNEISQYLPIKEAVCEKLIFPERIDPNPADSQKSTQVE
2 |  |  |  |  |  |  |  |  |  | binds | binds | binds | binds | TIP41 recombination protein from pGEX4T-TIP41, made in E. coli BL21 (protein, not shown: a dimerising Fc or GST) MMIHGFQSSHRDFCFGPWKLTASKTHIMKSADVEKLADELHMPSLPEMMFGDNVLRIQHGSGFGIEFNATDALRCVNNYQGMLKVACAEEWQESRTEGEHSKEVIKPYDWTYTTDYKGTLLGESLKLKVVPTTDHIDTEKLKAREQIKFFEEVLLFEDELHDHGVSSLSVKIRVMPSSFFLLLRFFLRIDGVLIRMNDTRLYHEADKTYMLREYTSRESKISSLMHVPPSLFTEPNEISQYLPIKEAVCEKLIFPERIDPNPADSQKSTQVE

— patent publication US20120315284A1
